Some of the results follow.
Experiments:
Experiment in all cases: log2 fold change, soluble protein after heating vs DMSO (PISA); higher = thermal stabilisation; K562 lysate, 10 uM; active = over 0.2 and 3.5 SD of the protein, either way, in both replicates (recomputed)
alvocidib = compound: CN1CC[C@H](c2c(O)cc(O)c3c(=O)cc(-c4ccccc4Cl)oc23)[C@H](O)C1 [alvocidib]
In short: (§1)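 Thermal stability, expressed as log-two fold change relative to solvent controls, is given from duplicates. Crude K562 extract in PBS pH 7.4 with 1 mM MgCl2, at 1 mg/mL protein, was treated with 10 μM compound for 30 min and heated in aliquots for 3 min across 48°C-58°C. After pooling, adjustment to 0.5% NP-40 at 4°C and centrifugation at 21,000xg for 90 min, supernatant protein was measured by TMTpro 16plex LC-MS/MS with channel sums equalised.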

Amino acid sequences for entries named in this document (tags omitted). A change or cut given only in a name is not applied to a line headed by its entry.
UniProt P00738: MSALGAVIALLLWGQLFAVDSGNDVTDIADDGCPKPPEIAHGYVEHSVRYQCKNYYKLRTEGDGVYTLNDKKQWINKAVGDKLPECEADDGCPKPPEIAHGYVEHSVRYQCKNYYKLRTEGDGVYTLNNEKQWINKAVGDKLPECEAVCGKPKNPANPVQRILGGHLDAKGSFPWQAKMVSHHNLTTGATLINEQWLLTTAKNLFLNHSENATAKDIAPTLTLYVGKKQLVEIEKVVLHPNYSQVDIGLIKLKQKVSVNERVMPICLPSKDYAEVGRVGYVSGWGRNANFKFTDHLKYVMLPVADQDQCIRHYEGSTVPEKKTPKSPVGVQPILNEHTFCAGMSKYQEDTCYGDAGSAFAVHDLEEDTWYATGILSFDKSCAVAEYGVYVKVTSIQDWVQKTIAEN
UniProt P08238, whole entry, looked up: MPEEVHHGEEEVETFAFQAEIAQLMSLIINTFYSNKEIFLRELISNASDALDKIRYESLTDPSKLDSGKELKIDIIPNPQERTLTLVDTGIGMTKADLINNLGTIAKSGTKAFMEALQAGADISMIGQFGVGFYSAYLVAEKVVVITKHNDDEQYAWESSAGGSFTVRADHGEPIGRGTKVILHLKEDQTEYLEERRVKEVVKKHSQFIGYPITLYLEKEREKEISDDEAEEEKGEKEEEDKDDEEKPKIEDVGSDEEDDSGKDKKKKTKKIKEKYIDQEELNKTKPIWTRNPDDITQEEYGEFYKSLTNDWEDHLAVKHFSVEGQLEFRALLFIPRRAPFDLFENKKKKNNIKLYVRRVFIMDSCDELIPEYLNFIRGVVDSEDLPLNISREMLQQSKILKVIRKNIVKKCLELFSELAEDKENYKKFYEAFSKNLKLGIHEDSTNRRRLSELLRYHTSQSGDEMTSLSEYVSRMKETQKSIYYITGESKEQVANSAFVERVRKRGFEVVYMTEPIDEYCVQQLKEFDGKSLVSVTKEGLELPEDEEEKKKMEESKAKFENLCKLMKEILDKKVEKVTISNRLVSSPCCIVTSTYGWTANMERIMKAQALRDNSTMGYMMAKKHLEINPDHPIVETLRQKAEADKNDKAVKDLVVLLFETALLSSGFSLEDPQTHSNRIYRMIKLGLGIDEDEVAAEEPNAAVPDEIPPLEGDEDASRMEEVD
UniProt Q14469: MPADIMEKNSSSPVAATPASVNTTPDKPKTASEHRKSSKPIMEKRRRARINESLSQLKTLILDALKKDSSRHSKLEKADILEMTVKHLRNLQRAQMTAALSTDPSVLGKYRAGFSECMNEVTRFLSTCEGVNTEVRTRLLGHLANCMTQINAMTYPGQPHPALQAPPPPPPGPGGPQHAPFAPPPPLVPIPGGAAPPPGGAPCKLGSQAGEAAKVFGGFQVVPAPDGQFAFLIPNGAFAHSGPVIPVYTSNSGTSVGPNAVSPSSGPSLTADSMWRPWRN
UniProt Q92902: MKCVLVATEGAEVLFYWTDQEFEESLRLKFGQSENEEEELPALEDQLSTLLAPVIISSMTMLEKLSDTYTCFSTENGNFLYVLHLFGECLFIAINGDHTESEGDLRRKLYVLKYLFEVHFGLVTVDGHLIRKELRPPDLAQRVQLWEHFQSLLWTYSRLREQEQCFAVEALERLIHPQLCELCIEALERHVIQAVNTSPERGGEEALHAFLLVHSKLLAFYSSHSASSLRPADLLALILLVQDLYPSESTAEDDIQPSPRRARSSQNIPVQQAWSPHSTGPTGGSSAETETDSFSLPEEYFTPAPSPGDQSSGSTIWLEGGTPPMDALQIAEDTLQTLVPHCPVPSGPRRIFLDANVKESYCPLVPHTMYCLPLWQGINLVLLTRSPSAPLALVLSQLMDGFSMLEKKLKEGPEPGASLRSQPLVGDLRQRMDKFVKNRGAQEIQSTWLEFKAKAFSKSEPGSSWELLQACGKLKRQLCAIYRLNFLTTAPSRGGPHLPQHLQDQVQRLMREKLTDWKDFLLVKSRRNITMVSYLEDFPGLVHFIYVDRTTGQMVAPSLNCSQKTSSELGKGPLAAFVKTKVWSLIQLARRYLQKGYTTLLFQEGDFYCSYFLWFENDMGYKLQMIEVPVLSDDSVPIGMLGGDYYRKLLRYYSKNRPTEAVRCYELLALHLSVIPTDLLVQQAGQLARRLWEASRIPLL
UniProt P17483: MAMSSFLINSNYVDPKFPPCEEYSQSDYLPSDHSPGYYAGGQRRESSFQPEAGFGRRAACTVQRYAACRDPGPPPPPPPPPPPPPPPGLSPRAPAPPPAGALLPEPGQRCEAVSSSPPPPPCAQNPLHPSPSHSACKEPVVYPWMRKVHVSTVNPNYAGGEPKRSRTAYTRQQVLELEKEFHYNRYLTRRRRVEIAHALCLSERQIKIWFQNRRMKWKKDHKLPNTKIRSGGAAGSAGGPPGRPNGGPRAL
UniProt Q03933: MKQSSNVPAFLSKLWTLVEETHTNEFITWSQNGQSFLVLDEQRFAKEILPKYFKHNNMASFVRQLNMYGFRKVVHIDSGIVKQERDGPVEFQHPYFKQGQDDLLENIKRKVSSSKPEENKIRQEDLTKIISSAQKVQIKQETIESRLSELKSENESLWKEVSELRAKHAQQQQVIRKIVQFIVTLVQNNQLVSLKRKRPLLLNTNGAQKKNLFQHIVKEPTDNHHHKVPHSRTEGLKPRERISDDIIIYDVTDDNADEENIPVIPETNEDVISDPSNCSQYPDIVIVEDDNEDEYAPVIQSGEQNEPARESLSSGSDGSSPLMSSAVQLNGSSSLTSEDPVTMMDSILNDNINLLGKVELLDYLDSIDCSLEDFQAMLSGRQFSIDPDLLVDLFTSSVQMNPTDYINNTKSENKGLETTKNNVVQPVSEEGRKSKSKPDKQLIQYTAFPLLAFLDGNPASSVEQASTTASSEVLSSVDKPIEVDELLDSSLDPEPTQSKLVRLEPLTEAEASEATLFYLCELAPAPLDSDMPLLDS
UniProt Q9Y241: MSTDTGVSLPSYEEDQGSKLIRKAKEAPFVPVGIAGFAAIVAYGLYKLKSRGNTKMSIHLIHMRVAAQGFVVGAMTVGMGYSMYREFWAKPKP
UniProt P31943: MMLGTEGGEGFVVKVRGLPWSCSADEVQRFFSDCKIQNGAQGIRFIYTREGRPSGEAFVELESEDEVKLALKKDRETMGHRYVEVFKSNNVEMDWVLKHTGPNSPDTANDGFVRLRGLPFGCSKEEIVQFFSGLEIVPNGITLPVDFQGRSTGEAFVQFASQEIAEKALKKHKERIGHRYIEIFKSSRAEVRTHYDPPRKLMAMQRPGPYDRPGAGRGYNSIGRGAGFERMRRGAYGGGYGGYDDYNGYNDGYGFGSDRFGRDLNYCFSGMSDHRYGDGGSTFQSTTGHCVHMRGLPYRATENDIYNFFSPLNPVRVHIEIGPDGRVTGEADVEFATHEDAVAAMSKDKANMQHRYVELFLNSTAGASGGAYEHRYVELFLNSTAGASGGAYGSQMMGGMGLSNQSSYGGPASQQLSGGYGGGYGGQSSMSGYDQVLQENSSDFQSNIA
UniProt P09651: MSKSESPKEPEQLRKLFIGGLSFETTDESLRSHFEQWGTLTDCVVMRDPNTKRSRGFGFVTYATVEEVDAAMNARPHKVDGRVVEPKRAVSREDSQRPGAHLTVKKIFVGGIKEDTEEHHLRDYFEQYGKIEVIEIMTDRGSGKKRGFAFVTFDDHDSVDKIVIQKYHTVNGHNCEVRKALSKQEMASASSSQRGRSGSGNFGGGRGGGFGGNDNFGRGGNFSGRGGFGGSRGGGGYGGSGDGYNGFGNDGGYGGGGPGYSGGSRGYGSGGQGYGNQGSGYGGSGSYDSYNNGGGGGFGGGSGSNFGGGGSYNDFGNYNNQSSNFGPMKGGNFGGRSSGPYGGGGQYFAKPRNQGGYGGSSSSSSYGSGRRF
UniProt P17096: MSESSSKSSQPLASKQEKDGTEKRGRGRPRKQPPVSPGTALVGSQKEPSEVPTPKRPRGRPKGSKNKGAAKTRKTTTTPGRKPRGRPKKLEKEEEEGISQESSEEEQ
UniProt Q969F9: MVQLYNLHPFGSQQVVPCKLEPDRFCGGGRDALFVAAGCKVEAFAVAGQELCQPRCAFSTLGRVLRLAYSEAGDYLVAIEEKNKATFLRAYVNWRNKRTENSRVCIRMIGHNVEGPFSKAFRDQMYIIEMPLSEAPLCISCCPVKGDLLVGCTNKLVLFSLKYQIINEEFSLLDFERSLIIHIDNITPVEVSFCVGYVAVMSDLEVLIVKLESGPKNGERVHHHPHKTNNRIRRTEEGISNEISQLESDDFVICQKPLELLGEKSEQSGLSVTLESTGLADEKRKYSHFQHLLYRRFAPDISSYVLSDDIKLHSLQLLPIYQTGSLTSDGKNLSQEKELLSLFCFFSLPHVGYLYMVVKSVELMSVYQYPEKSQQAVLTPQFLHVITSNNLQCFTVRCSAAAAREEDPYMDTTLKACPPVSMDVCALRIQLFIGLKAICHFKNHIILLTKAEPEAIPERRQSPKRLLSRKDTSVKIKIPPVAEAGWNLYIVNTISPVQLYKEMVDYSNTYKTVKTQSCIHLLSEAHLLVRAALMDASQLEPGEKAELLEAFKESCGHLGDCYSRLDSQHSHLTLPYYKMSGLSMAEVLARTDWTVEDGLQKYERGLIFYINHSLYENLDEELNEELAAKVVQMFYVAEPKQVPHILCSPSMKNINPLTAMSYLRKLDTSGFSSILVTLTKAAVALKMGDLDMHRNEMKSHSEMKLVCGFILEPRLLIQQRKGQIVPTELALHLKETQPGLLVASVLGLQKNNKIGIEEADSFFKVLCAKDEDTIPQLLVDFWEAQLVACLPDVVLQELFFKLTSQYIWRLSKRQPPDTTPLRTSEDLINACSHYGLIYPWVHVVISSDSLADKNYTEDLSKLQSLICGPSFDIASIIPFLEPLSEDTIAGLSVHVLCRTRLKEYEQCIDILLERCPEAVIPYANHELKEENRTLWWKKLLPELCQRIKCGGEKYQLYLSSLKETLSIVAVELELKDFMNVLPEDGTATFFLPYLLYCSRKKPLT
UniProt P54652, whole entry, looked up: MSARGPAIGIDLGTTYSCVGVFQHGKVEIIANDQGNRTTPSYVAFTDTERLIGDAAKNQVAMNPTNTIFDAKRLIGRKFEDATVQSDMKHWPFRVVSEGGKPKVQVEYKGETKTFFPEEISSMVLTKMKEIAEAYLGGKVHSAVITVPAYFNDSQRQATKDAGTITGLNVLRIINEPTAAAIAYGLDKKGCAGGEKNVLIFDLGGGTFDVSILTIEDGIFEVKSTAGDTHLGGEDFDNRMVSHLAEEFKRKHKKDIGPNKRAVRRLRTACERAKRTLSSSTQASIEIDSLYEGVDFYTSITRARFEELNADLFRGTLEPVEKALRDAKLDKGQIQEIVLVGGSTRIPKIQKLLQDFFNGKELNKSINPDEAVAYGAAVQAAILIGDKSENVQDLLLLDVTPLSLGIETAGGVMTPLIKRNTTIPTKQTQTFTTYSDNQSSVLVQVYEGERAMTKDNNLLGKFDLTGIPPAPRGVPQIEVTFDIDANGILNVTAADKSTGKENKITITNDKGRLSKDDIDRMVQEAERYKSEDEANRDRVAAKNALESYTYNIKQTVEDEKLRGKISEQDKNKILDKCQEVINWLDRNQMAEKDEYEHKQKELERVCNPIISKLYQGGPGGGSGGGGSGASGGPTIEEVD
UniProt Q9UJC3, whole entry, looked up: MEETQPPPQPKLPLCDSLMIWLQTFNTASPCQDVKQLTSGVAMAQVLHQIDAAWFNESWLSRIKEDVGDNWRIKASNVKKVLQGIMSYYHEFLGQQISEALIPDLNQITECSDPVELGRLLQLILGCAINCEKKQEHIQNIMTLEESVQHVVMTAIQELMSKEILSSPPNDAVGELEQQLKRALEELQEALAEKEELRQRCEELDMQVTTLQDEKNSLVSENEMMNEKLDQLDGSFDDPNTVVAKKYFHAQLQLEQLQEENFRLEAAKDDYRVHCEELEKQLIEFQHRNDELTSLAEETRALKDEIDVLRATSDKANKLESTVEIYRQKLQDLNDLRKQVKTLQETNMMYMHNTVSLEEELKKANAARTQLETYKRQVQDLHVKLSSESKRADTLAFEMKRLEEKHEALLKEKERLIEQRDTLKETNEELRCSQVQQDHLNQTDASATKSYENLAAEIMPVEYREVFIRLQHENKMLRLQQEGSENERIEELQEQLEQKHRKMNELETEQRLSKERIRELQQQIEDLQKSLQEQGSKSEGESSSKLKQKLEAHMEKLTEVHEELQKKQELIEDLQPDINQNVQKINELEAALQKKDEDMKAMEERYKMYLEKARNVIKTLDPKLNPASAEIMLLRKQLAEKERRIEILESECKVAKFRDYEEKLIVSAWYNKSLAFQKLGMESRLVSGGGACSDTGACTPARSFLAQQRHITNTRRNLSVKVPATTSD

Tubastatin A = compound: CN1CCc2c(c3ccccc3n2Cc2ccc(C(=O)NO)cc2)C1 [Tubastatin A]
In short: as §1

[1] = compound: CNc1nc(-c2ccc3c(N)n[nH]c3c2)cc(N2C[C@@H](C(=O)NC3CCCCC3)CC[C@H]2C)n1
In short: as §1

[2] = compound: CNC(=O)C1=CC=CC=C1NC2=NC(=NC=C2Cl)NC3=C(C=C(C=C3)N4CCOCC4)OC
In short: as §1

defactinib = compound: CNC(=O)c1ccc(Nc2ncc(C(F)(F)F)c(NCc3nccnc3N(C)S(C)(=O)=O)n2)cc1 [defactinib]
In short: as §1

encorafenib = compound: COC(=O)N[C@@H](C)CNc1nccc(-c2cn(C(C)C)nc2-c2cc(Cl)cc(NS(C)(=O)=O)c2F)n1 [encorafenib]
In short: as §1

[3] = compound: COC(=O)[C@H](CCSC)NC(=O)C1=C(C=C(C=C1)NC[C@H](CS)N)C2=CC=CC=C2
In short: as §1

alisertib = compound: COc1cc(Nc2ncc3c(n2)-c2ccc(Cl)cc2C(c2c(F)cccc2OC)=NC3)ccc1C(=O)O [alisertib]
In short: as §1

[4] = compound: COc1cc2nc(-c3cc(F)ccc3O)nc(N[C@@H]3CNC[C@H]3C(C)(C)O)c2cc1OC
In short: as §1

gefitinib = compound: COc1cc2ncnc(Nc3ccc(F)c(Cl)c3)c2cc1OCCCN1CCOCC1 [gefitinib]
In short: as §1

Measured: log2 fold change

HP (UniProt P00738)
inactive: alvocidib -0.073 | Tubastatin A 0.061 | [1] -0.215

HEPH isoform 3 (UniProt Q9BQS7)
inactive: alvocidib -0.021 | Tubastatin A 0.06 | [2] -0.004 | defactinib 0.004 | [1] -0.046 | encorafenib 0.048 | [3] 0.039 | alisertib -0.059 | [4] -0.012 | gefitinib 0.041

HSP90AB1 (UniProt P08238)
inactive: alvocidib 0.054 | Tubastatin A 0.028 | [2] -0.001 | defactinib 0.015 | [1] -0.002 | encorafenib -0.013 | [3] 0.011 | alisertib -0.009 | [4] -0.005 | gefitinib -0.03

HES1 (UniProt Q14469)
inactive: alvocidib -0.223 | Tubastatin A 0.066 | [2] -0.053 | [1] 0.08 | encorafenib -0.133 | [3] 0.213 | alisertib -0.062 | [4] 0.159 | gefitinib -0.125

HPS1 (UniProt Q92902)
inactive: alvocidib -0.045 | Tubastatin A -0.001 | [2] 0.029 | defactinib 0.087 | [1] 0.002 | encorafenib 0.118 | [3] 0.02 | [4] 0.009

HOXB4 (UniProt P17483)
inactive: alvocidib -0.064 | Tubastatin A 0.082 | defactinib -0.032 | [1] -0.158 | encorafenib 0.032 | [3] -0.1 | alisertib -0.036 | [4] -0.106 | gefitinib 0.051

HSF2 (UniProt Q03933)
inactive: alvocidib -0.029 | Tubastatin A -0.019 | defactinib 0.02 | [1] -0.035 | encorafenib 0.062 | [3] 0.064

HIGD1A isoform 2 (UniProt Q9Y241)
inactive: alvocidib 0.022 | Tubastatin A -0.007 | [2] 0.143 | [1] 0.174 | [4] 0.154

HNRNPH1 (UniProt P31943)
inactive: alvocidib -0.021 | Tubastatin A -0.197 | [2] 0.034 | defactinib -0.022 | [1] -0.06 | encorafenib 0.072 | [3] -0.038 | alisertib -0.006 | [4] 0 | gefitinib -0.028

HNRNPA1 (UniProt P09651)
inactive: alvocidib -0.011 | Tubastatin A 0.011 | [2] 0.003 | defactinib -0.01 | [1] 0.055 | encorafenib -0.028 | [3] -0.02 | alisertib 0.011 | [4] 0.007 | gefitinib 0.006

HMGA1 isoform 2 (UniProt P17096)
inactive: alvocidib 0.289 | Tubastatin A 0.102 | [2] 0.085 | [1] 0.034 | alisertib -0.255 | [4] -0.038 | gefitinib -0.442

HPS3 (UniProt Q969F9)
inactive: alvocidib -0.025 | Tubastatin A -0.238 | [2] 0.007 | defactinib -0.055 | [1] 0.095 | encorafenib -0.145 | [3] 0.126 | alisertib 0.062 | gefitinib -0.035

HSPA2 (UniProt P54652)
inactive: alvocidib -0.139 | Tubastatin A 0.004 | [2] -0.015 | defactinib -0.01 | [1] 0.036 | encorafenib -0.017 | [3] 0.045 | alisertib -0.06 | [4] 0.019 | gefitinib 0.092

HOOK1 (UniProt Q9UJC3)
inactive: alvocidib -0.224 | [2] 0.088 | [1] 0.011

2 records drawn at random from those above:
HPS3 (UniProt Q969F9)
inactive: alvocidib -0.025 | Tubastatin A -0.238 | [2] 0.007 | defactinib -0.055 | [1] 0.095 | encorafenib -0.145 | [3] 0.126 | alisertib 0.062 | gefitinib -0.035

HIGD1A isoform 2 (UniProt Q9Y241)
inactive: alvocidib 0.022 | Tubastatin A -0.007 | [2] 0.143 | [1] 0.174 | [4] 0.154

The results go on:

HSPA1L (UniProt P34931)
inactive: alvocidib -0.004 | Tubastatin A 0.151 | [2] -0.03 | defactinib -0.022 | [1] 0.019 | encorafenib 0.002 | [3] -0.008 | alisertib 0.031 | [4] -0.023 | gefitinib 0.058

— the supplement of paper PMC10849652
